Experimental data taken from publication PMC11019930, “DnaK duplication and specialization in bacteria correlates with increased proteome complexity” (mSystems, 2024).
No constants are given. Whether binding was seen depends on the method and setting. For some assays here: In cells and extracts the contact can be indirect. Some binding calls cover weakened binding; strength is not graded here.

B1: His6-MxDnaK2 (natural protein, Myxococcus xanthus DK1622, UniProt P95334 1-607, looked up)
chain: MGKVIGIDLGTTNSCVAVMEGGEPVVIPNSEGSRTTPSMVGFTDSGERLVGQIAKRQAITNPENTVFAAKRLIGRKFDSPEGKKAIGVSPFKVASSPNGDAWVEIRGKGYSPPEVSAIVLMKMKQTAEDYLGEQVSEAVITVPAYFNDSQRQATKDAGRIAGLSVLRIINEPTAAALAYGLDKVQDGGTERIAVYDLGGGTFDISILELNAGVFEVKSTNGDTFLGGEDFDQRLIDYLAKRFAESNNGLDLRKDRMALQRLKEAAERAKHELSSAPETEVNLPFITADASGPKHLTETVDRATFEALVTDLIDRTIEPCRIALKDAGIPAQQINQVLLVGGMTRMPRVQQKVKEFFGREPHKGINPDEVVAVGAAIQGGVLKGEVKDVLLLDVTPLSLGVETAGGVFTKIIDKNTTIPCKKSQVFSTAVDNQPLVSVHVLQGEREMAADNKTLARFELVGIPPAPRGVPQIEVSFDIDANGIVHVSAKDLGTGKVQQVRVVSNSGLSEAEIQAMISDAQSHASDDKKKKELAELRNNADGLIYTTEKSLEEYASLLSEKDREEIKADLERLKEVLNTSDAAVLKESFQRLEGSAYRIADAIYTGQAS
notes: MxDnaK2 (MXAN_6671) of Myxococcus xanthus DK1622; the gene was amplified from genomic DNA and cloned into pET28a; His6-MxDnaK2 printed as 65.3 kDa; also called MxDnaK2, recombinant purified; source: E. coli BL21 (DE3), purified (Ni-NTA); not shown: His6, N-terminal, kept

Key:
[1] = target: MxDnaK2-nLuc (MxDnaK2 fused to LgBiT or SmBiT) (Myxococcus xanthus DK1622) (UniProt P95334); experiment: split reporter; split NanoBit luciferase oligomerization assay: MxDnaK-SmBiT (pET28A) and MxDnaK-LgBiT (pACYC Duet-1) co-expressed in E. coli BL21(DE3); empty vectors as negative control
[2] = target: His6-MxDnaK2 (Myxococcus xanthus DK1622) (UniProt P95334); experiment: SDS-PAGE of the purified protein (monomer and dimer bands); purified MxDnaK2 treated with 100 mM DTT; band compositions confirmed by LC-MS; both purified

| Molecule | binding [1] | binding [2] |
| --- | --- | --- |
| MxDnaK2-nLuc (MxDnaK2 fused to LgBiT or SmBiT) (from UniProt P95334 1-607) | binds | – |
| B1 | – | no binding (condition: with 100 mM DTT) |
